Experimental data published in patent US5516525A, “Vitamin D derivative feed compositions and methods of use” (University of Georgia Research Foundation, Inc., priority 1994, dated 1996).
The name of at least one read-out is uncertain.

Tested on: bone ash
Test: bone ash (Example 2)
Assay type: in vivo, chicken (Peterson X Arbor Acre cockerels)
Conditions: D3 […], derivatives 10 μg/kg feed
Experimental: The basal diet used is described above in Table 2. Disulfiram was added to the basal diet of some chickens as indicated in Table 10 at a level of 30 mg/kg of feed.
After the tibia was scored for incidence and severity of tibial dyschondroplasia, the left tibia was removed for a bone ash determination on the fat-free dried bone.

[1] = Study 1, with disulfiram 30 mg/kg feed
[2] = Study 2, with disulfiram 30 mg/kg feed

Structure (SMILES) | Bone ash [1] | Bone ash [2] | Bone ash (Study 1, basal diet) | Bone ash (Study 2, basal diet) | Bone ash (Study 4)
CCN(CC)C(=S)SSC(=S)N(CC)CC [Disulfiram, bis(diethylthiocarbamyl)disulfide, reference compound] | 39.9 | 40.3 |  |  | 
C=C1CC[C@H](O)C/C1=C/C=C1\CCC[C@]2(C)[C@@H]([C@H](C)CCCC(C)C)CC[C@@H]12 [D3, cholecalciferol, reference compound] | 40.0 | 40.3 | 40.4 | 40.5 | 35.68
